Reference: publication PMC12711892, “A genome-wide CRISPR screen identifies GRA38 as a key regulator of lipid homeostasis during Toxoplasma gondii adaptation to lipid-rich conditions” (Nature Communications, 2025)

Amino acid sequences for entries named in this document (tags omitted).
UniProt A0A7J6JXD8, entry or part of it: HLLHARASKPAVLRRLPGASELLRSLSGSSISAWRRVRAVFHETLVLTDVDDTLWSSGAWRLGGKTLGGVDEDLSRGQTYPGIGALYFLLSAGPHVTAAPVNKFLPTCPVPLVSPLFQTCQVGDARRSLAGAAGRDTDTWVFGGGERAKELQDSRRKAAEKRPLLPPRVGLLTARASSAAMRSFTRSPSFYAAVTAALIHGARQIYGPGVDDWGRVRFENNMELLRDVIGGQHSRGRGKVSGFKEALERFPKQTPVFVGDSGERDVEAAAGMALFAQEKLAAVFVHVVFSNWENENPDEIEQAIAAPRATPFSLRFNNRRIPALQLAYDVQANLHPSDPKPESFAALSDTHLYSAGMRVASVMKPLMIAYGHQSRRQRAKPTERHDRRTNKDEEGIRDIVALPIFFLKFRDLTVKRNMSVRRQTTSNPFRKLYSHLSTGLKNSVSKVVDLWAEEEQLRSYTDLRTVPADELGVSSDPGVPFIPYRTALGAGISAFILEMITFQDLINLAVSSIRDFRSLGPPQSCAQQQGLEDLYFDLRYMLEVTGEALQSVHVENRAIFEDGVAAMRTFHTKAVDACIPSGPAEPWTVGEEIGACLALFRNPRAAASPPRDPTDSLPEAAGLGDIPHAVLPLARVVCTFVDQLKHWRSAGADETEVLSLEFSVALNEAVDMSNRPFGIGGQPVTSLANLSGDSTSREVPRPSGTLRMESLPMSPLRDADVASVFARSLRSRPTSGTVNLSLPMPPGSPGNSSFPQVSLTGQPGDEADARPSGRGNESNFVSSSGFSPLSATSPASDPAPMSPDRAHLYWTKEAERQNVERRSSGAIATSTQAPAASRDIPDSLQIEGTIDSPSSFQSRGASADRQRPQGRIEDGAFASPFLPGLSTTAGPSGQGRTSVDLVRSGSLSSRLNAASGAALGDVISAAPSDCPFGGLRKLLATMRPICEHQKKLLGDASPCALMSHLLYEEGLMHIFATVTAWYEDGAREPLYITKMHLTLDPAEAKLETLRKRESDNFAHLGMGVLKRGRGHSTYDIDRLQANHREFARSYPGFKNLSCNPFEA

Target: T1, GRA38-6xHis (Toxoplasma gondii, UniProt A0A7J6JXD8)
T1 construct: gene TGRH88_051660; signal peptide (first 23 residues) removed; C-terminal 6xHis in pET-29b(+), codon-optimised, E. coli BL21; tag kept
Experiment: malachite green phosphate release assay (PAP activity)
Type: biochemical
Details: read-out: % inhibition at 1 mM

SMILES: CC(C)NCC(O)COc1cccc2ccccc12 (stereo not shown) [propranolol]
- inhibition at 1000 µM: ~29%
